# Cell number after 72 h of treatment

Data from the primary screen of doi:10.1371/journal.pone.0140310, rounded.

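Human melanoma cells were exposed to two drugs together for 72 h in 1,536-well plates and read by automated microscopy after fixing and staining. Values are the number of DAPI-stained nuclei as a percentage of the DMSO control: 100 is no effect, lower means fewer cells. Concentrations were fixed for each drug; these are the higher of two levels. The file gives one value for each pair and line, without errors, so small differences may be noise.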
An unselected part of the screen is shown.

First drug in all entries: tozasertib, 0.03 µM, Cc1cc(Nc2cc(N3CCN(C)CC3)nc(Sc3ccc(NC(=O)C4CC4)cc3)n2)n[nH]1

Drugs:
temozolomide (10 µM): Cn1nnc2c(C(N)=O)ncn2c1=O
lapatinib (4 µM): CS(=O)(=O)CCNCc1ccc(-c2ccc3ncnc(Nc4ccc(OCc5cccc(F)c5)c(Cl)c4)c3c2)o1
GW2580 (5 µM): COc1ccc(COc2ccc(Cc3cnc(N)nc3N)cc2OC)cc1
BI-78D3 (1 µM): O=c1[nH]nc(Sc2ncc([N+](=O)[O-])s2)n1-c1ccc2c(c1)OCCO2
GW0742 (10 µM): Cc1cc(SCc2sc(-c3ccc(C(F)(F)F)c(F)c3)nc2C)ccc1OCC(=O)O
L-779450 (1 µM): Oc1cc(-c2nc(-c3ccccc3)[nH]c2-c2ccncc2)ccc1Cl
XAV939 (10 µM): Oc1nc(-c2ccc(C(F)(F)F)cc2)nc2c1CSCC2
selumetinib (0.075 µM): Cn1cnc2c(F)c(Nc3ccc(Br)cc3Cl)c(C(=O)NOCCO)cc21
JZL184 (5 µM): O=C(Oc1ccc([N+](=O)[O-])cc1)N1CCC(C(O)(c2ccc3c(c2)OCO3)c2ccc3c(c2)OCO3)CC1
AS-252424 (5 µM): O=C1NC(=O)/C(=C/c2ccc(-c3ccc(F)cc3O)o2)S1
GW441756 (2 µM): Cn1cc(/C=C2\C(=O)Nc3cccnc32)c2ccccc21
bortezomib (0.005 µM): CC(C)C[C@H](NC(=O)[C@H](Cc1ccccc1)NC(=O)c1cnccn1)B(O)O
indole-3-carbinol (4 µM): OCc1c[nH]c2ccccc12
dovitinib (0.5 µM): CN1CCN(c2ccc3nc(-c4c(N)c5c(F)cccc5[nH]c4=O)[nH]c3c2)CC1
U73122 (2 µM): COc1ccc2c(c1)CCC1C2CCC2(C)C(NCCCCCCN3C(=O)C=CC3=O)CCC12 (stereo not given)
PD173074 (0.5 µM): CCN(CC)CCCCNc1ncc2cc(-c3cc(OC)cc(OC)c3)c(NC(=O)NC(C)(C)C)nc2n1
stibogluconate (10 µM): O=C(O)[C@@H]1[O][Sb](=[O])([O][Sb]2(=[O])[O][C@H]([C@H](O)CO)[C@H](O)[C@H](C(=O)O)[O]2)[O][C@H]([C@H](O)CO)[C@@H]1O (stereo not given in full)
FK866 (0.05 µM): O=C(/C=C/c1cccnc1)NCCCCC1CCN(C(=O)c2ccccc2)CC1
KU-55933 (5 µM): O=c1cc(-c2cccc3c2Sc2ccccc2S3)oc(N2CCOCC2)c1
ruxolitinib (5 µM): N#CC[C@H](C1CCCC1)n1cc(-c2ncnc3[nH]ccc23)cn1
vincristine (0.0005 µM): CC[C@]1(O)C[C@H]2CN(CCc3c([nH]c4ccccc34)[C@@](C(=O)OC)(c3cc4c(cc3OC)N(C=O)[C@H]3[C@@](O)(C(=O)OC)[C@H](OC(C)=O)[C@]5(CC)C=CCN6CC[C@]43[C@@H]65)C2)C1
vatalanib (10 µM): Clc1ccc(Nc2nnc(Cc3ccncc3)c3ccccc23)cc1
pazopanib (2 µM): Cc1ccc(Nc2nccc(N(C)c3ccc4c(C)n(C)nc4c3)n2)cc1S(N)(=O)=O

Second drug | WM3619 | COLO 800 | C32 | WM451Lu | COLO 792 | COLO 829
temozolomide | 78.5 | 53.1 | 70.5 | 88.7 | 84.1 | 50.2
indole-3-carbinol | 67.8 | 38.8 | 59.8 | 76.0 | 63.0 | 87.8
BI-78D3 | 64.7 | 23.1 | 76.1 | 102 | 104 | 85.3
GW2580 | 55.1 | 45.8 | 80.2 | 78.4 | 87.6 | 85.6
U73122 | 68.8 | 56.0 | 68.8 | 114 | 106 | 90.6
GW441756 | 77.3 | 36.0 | 84.3 | 96.5 | 71.7 | 79.7
FK866 | 66.4 | 26.6 | 91.8 | 93.5 | 40.9 | 62.7
selumetinib | 58.1 | 41.1 | 72.8 | 65.8 | 57.3 | 98.4
ruxolitinib | 64.3 | 47.5 | 68.3 | 78.0 | 84.0 | 73.4
dovitinib | 55.7 | 34.3 | 102 | 77.4 | 39.3 | 46.5
AS-252424 | 57.3 | 55.6 | 98.9 | 87.1 | 69.1 | 78.6
XAV939 | 55.4 | 28.1 | 91.1 | 100 | 64.7 | 79.0
vatalanib | 72.0 | 44.7 | 84.6 | 97.1 | 82.8 | 68.5
bortezomib | 2.0 | 81.5 | 24.2 | 19.2 | 36.9 | 9.5
L-779450 | 79.3 | 42.6 | 77.0 | 48.7 | 98.3 | 53.6
JZL184 | 76.9 | 47.5 | 68.3 | 106 | 75.7 | 74.8
GW0742 | 76.9 | 58.2 | 78.4 | 99.1 | 88.5 | 81.2
lapatinib | 71.1 | 17.2 | 86.0 | 77.3 | 58.7 | 69.7
vincristine | 59.5 | 56.1 | 72.5 | 61.4 | 86.0 | 63.6
stibogluconate | 106 | 30.5 | 84.6 | 76.8 | 86.3 | 80.7
KU-55933 | 72.1 | 44.8 | 76.7 | 77.6 | 78.2 | 79.8
pazopanib | 104 | 61.5 | 80.2 | 81.3 | 83.7 | 75.5
PD173074 | 68.0 | 39.2 | 89.4 | 82.7 | 84.7 | 81.2

The last 2 entries again:

{"second drug": "pazopanib", "WM3619": 104, "COLO 800": 61.5, "C32": 80.2, "WM451Lu": 81.3, "COLO 792": 83.7, "COLO 829": 75.5}
{"second drug": "PD173074", "WM3619": 68.0, "COLO 800": 39.2, "C32": 89.4, "WM451Lu": 82.7, "COLO 792": 84.7, "COLO 829": 81.2}